Patent US20070129367A1, “Pyridine derivatives as cb2 receptor modulators” (priority 2002, published 2007)
pEC50: −log10 of the molar value. Some entries share one result that the patent states for a list of compounds.

Amino acid sequences for entries named in this document (tags omitted).
UniProt P34972, whole entry: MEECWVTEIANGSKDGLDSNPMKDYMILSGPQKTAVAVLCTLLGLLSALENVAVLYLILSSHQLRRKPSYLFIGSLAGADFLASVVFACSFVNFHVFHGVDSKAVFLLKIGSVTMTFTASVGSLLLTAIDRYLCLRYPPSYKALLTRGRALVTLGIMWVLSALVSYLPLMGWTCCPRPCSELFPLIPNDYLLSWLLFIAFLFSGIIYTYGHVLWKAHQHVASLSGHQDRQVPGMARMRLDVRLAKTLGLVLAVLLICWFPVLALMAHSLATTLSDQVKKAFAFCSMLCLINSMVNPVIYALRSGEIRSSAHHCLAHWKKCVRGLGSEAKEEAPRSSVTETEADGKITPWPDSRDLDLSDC

Target: T1, human cannabinoid CB2 receptor (Homo sapiens, UniProt P34972)
T1 construct: expressed in transfected cells; host or cells: Saccharomyces cerevisiae strain MMY23 (cassette integrated at the ura3 locus, GPD promoter)
Experiment: Cannabinoid CB2 receptor agonist activity in yeast (Saccharomyces cerevisiae) cells expressing the receptor, FDGlu fluorescence readout
Assay type: cell-based
Settings: for efficacy (Emax) at the cloned human cannabinoid CB2 receptor: Emax relative to HU210; for pEC50: agonist activity, yeast cells, 24 hours at 30° C., read-out: EC50 at the cloned human cannabinoid CB2 receptor
Protocol: Determination of Cannabinoid CB2 Receptor Agonist Activity
The cannabinoid CB2 receptor agonist activity of the compounds of formula (I) was determined in accordance with the following experimental method.
Yeast (Saccharomyces cerevisiae) cells expressing the human cannabinoid CB2 receptor were generated by integration of an expression cassette into the ura3 chromosomal locus of yeast strain MMY23. This cassette consisted of DNA sequence encoding the human CB2 receptor flanked by the yeast GPD promoter to the 5′ end of CB2 and a yeast transcriptional terminator sequence to the 3′ end of CB2. MMY23 expresses a yeast/mammalian chimeric G-protein alpha subunit in which the C-terminal 5 amino acids of Gpa1 are replaced with the C-terminal 5 amino acids of human Gαi3 (as described in Brown et aL (2000), Yeast 16:11-22). Cells were grown at 30° C. in liquid Synthetic Complete (SC) yeast media (Guthrie and Fink (1991), Methods in Enzymology, Vol. 194) lacking uracil, tryptophan, adenine and leucine to late logarithmic phase (approximately 6 OD600/ml).
Agonists were prepared as 10 mM stocks in DMSO. […] Agonist solutions in DMSO (1% final assay volume) were transferred into black, clear bottom, microtitre plates from NUNC (96- or 384-well). […] This mixture (50 ul per well for 384-well plates, 200 ul per well for 96-well plates) was added to agonist in the assay plates (Multidrop 384, Labsystems). After incubation at 30° C. for 24 hours, fluorescence resulting from degradation of FDGlu to fluorescein due to exoglucanase, an endogenous yeast enzyme produced during agonist-stimulated cell growth, was determined using a Spectrofluor microtitre plate reader (Tecan; excitation wavelength: 485 nm; emission wavelength: 535 nm). Fluorescence was plotted against compound concentration and iteratively curve fitted using a four parameter fit to generate a concentration effect value. […] Equieffective molar ratio (EMR) values were calculated from the equation EMR=EC50 [compound X]/EC50 [HU210]
Where EC50 [compound X] is the EC50 of compound X and EC50 [HU210] is the EC50 of HU210.

Substance	efficacy (Emax) at the cloned human cannabinoid CB2 receptor [%]	pEC50
N-(2-Fiuoro- pyridin-4- ylmethyl)-6-(3- bromo- phenylamino)- 4- trifluoromethyl- nicotinamide [Example 47]	> 50	> 6.52
N-(2-Fluoro- pyridin-4- ylmethyl)-6- (3,4-dichloro- phenylamino)- trifluoromethyl- nicotinamide [Example 56]	> 50	> 6.52
N-(2-Fluoro- pyridin-4- ylmethyl)-6-(3- fluoro- 4- trifluoromethyl- nicotinamide [Example 48]	> 50	> 6.52
